# Microarray screen: hit calls

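Compounds were printed on reactive glass slides in duplicate spots, a dye-labelled oligonucleotide was laid over them, and the fluorescence left after washing was read. For the PreQ1, TPP and SAM-II riboswitches the laboratory earlier reported (doi:10.1038/s41467-019-09493-3) 1 µM RNA, 2 h, and a rule that included a mean Z-score above 3 (spot signal-to-noise against the whole library), a score well above that on a control array, and duplicate spots agreeing (coefficient of variation under 100). The data file gives only the calls; its cut-offs may differ, and compounds hitting several targets are kept. A missing hit is not proof of no binding, and a hit is not a measured affinity.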 A compound is marked yes if it was called a hit and no if it was screened but was not. Compounds were drawn at random from those tested, without regard to their results. A target missing from an entry has no call listed here. A dash means that no call is listed here.

Targets (5′ to 3′):
SAM-II: SAM-II riboswitch RNA pseudoknot, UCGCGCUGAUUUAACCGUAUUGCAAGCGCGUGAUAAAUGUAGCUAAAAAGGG. About 200 hits among about 21,000 compounds.
PreQ1: PreQ1 riboswitch RNA pseudoknot, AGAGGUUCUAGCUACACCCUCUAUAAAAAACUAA. From B. subtilis. About 170 hits among about 24,000 compounds.
TPP: TPP riboswitch RNA three-way junction, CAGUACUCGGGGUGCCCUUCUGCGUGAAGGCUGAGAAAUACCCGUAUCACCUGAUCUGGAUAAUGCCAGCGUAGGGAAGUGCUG. About 160 hits among about 24,000 compounds.

| # | compound | SAM-II | PreQ1 | TPP |
|---|---|---|---|---|
| 1 | `Cc1c[n+](C)c(C)cc1Nc1ccccc1` | no | no | no |
| 2 | `Cc1cccc(Nc2nc(C)nc3c2CCC3)c1` | - | no | no |
| 3 | `C[C@@]1(O)CCN(C(=O)c2cccc(N3CCOCC3)c2)C[C@@H]1O` | no | no | no |
| 4 | `CO[C@H]1CN(Cc2cnn(-c3ccc(C)c(C)c3)c2)CC[C@H]1N` | no | no | no |
| 5 | `O=C(NCCO)Nc1ccc2snnc2c1` | - | no | no |
| 6 | `CC(C)n1cnc2c(NCCCCCCNC(=O)OC(C)(C)C)nc(NCCO)nc21` | no | no | no |
| 7 | `O=C(NC[C@@H]1C[C@H](F)CN1)Nc1cc(F)cc(F)c1Cl` | yes | no | no |
| 8 | `Cc1sc2ncc(C(=O)NCCCO)c(=O)n2c1C` | - | no | no |
| 9 | `Nc1nc2c([se]1)C(c1ccc(F)cc1)CC(=O)N2` (stereo not shown) | no | no | no |
| 10 | `CO[C@H]1C[C@@H](O)C12CCN(Cc1cc3c(cc1C)OCCO3)CC2` | no | no | no |
| 11 | `Cc1cc(Br)c(N)cc1Cl` | no | no | no |
| 12 | `Nc1cccc2c1C(=O)N(C1CCC(=O)NC1=O)C2=O` (stereo not shown) | no | no | no |
| 13 | `Nc1nonc1C(=O)N1CCN(C(=O)Nc2cccc(C(F)(F)F)c2)CC1` | - | no | no |
| 14 | `CCOc1ccccc1CNCCNC(=O)c1nonc1N` | no | no | no |
| 15 | `Cc1cccc(C2C(C#N)=C(N)OC3=C2S(=O)(=O)N(Cc2ccccc2)c2ccccc23)c1` (stereo not shown) | - | no | no |
| 16 | `OCC1COCCN(C2CCN(CCc3ccccc3)CC2)C1` (stereo not shown) | no | no | no |
| 17 | `CC(C)OCC(O)Cn1c2ccccc2c2ccccc21` (stereo not shown) | no | no | no |
| 18 | `O=S(=O)(c1ccccc1)c1nc(-c2ccco2)oc1NCc1ccco1` | - | no | no |
| 19 | `CC(O)CN1CC(=O)C(c2nc(-c3ccc(Cl)cc3)cs2)=C1N` (stereo not shown) | - | no | no |
| 20 | `OC(Cn1nc(-c2ccccc2)cc1-c1ccccc1)Cn1c2ccccc2c2ccccc21` (stereo not shown) | no | no | no |
| 21 | `Cc1cc(C)c(C(N)=O)c(Nc2ccc(F)cc2)n1` | no | no | no |
| 22 | `CCCCc1nc2oc(C(=O)c3ccccc3)c(N)c2c2c1COC(C)(C)C2` | no | no | no |
| 23 | `COc1ccc(C=Cc2nc(C#N)c(NC3CC3)o2)cc1OC` | - | no | no |
| 24 | `CC(C)C(=O)Nc1cc(NC(=O)N[C@H](CO)Cc2ccccc2)ccc1F` | no | no | no |
| 25 | `N#CC1=C(Nc2ccccc2Cl)SC(c2ccccc2O)NC1=O` (stereo not shown) | no | no | no |
| 26 | `COC(=O)COc1cc(-c2ccc(OC)cc2)nc2ccc(N)cc12` | no | no | no |
| 27 | `COC(=O)CCCCCNc1cc(C)nc2nc(-c3ccc(C(C)(C)C)cc3)nn12` | - | no | no |
| 28 | `CC(C(C)N1CC(=O)NC(=O)C1)N1CC(=O)NC(=O)C1` (stereo not shown) | no | no | no |
| 29 | `N[C@@H]1CC[C@H](C(=O)N(CCc2c[nH]c3ccccc23)Cc2cccnc2)C1` | no | no | no |
| 30 | `COc1ccc(S(=O)(=O)[C@H]2CS(=O)(=O)C[C@@H]2NCc2ccncc2)cc1` | - | no | no |
| 31 | `Cc1ccc(-c2cc(C(=O)N3C[C@H](N)C[C@H]3C(=O)NC(C)C)[nH]n2)o1` | no | no | no |
| 32 | `Cc1nc(N2CCN(C)CC2)ncc1C(=O)N[C@@H]1CC[C@@H](N)C1` | no | no | no |
| 33 | `O=C(CNc1cccc2ccccc12)NN=Cc1c(Cl)cccc1Cl` | yes | yes | no |
| 34 | `COc1ccccc1CNc1nc2ccccc2n2cnnc12` | no | no | no |
| 35 | `CC(CCn1cccn1)NC(=O)[C@@H]1CN(C)CC[C@H]1O` (stereo partly shown) | no | no | no |
| 36 | `CCOC(=O)c1ccc(Nc2c(-c3ccccc3)nc3cnccn23)cc1` | - | no | no |
| 37 | `Nc1nc(N2CCC(c3nccn3CC3CC3)CC2)c2nc[nH]c2n1` | no | no | no |
| 38 | `c1ccc(C2CCCN(CCn3ccnc3-c3cc4n(n3)CCCNC4)C2)cc1` (stereo not shown) | no | no | no |
| 39 | `COc1ccccc1N1CC(c2nc3ccccc3n2CC(O)COc2ccc(C)c(C)c2)CC1=O` (stereo not shown) | - | no | no |
| 40 | `CC(c1nc2c(s1)CCCC2)n1cc(-c2ccc(CO)o2)nn1` (stereo not shown) | no | no | no |
| 41 | `CS(=O)(=O)N1CCN(c2ccc(Nc3nc4ccccc4nc3N3CCOCC3)cc2)CC1` | no | no | no |
| 42 | `CC(C)NC(=O)CNC(C)CCc1ccccc1` (stereo not shown) | no | no | no |
| 43 | `COc1cc(C(O)c2nc3ccccc3s2)cc(OC)c1OC` (stereo not shown) | no | no | no |
| 44 | `Cc1ccc(C#N)c(N2C[C@H]3C[C@H](O)[C@@H](O)C[C@H]3C2)n1` | no | no | no |
| 45 | `Nc1nc(SCCc2ccccc2)ns1` | no | no | no |
| 46 | `CCCC=Cc1ccc2[nH]c(C(C)O)nc2c1` (stereo not shown) | no | no | no |
| 47 | `CCOc1nc(NC(C)C)nc(N2CC3CC(C2)c2cccc(=O)n2C3)n1` (stereo not shown) | no | no | no |
| 48 | `CC(C)c1ccc(-c2c(NC3CCCCC3)c(=O)c2=O)cc1` | - | no | no |
| 49 | `CCN(CC(O)COc1ccc(Cl)cc1)C1CCCCC1.Cl` (stereo not shown) | no | no | no |
| 50 | `O=C1C(CCO)Oc2ccccc2N1Cc1ccccc1` (stereo not shown) | no | no | no |
| 51 | `O=C(NCc1ccc2c(c1)CCCO2)c1cn(CCN2CCNCC2)nn1` | no | no | no |
| 52 | `O=C1NC(Cc2ccc(F)cc2)(C2CCNCC2)C(=O)N1CCc1ccncc1` (stereo not shown) | no | no | no |
| 53 | `CC(C)(C(=O)NCC(F)(F)C(F)(F)F)C(=O)N[C@@H]1C(=O)Nc2ccccc2-c2ccccc21` | no | no | no |
| 54 | `Cc1ccc(Nc2nc(C(=O)N3CCC(Cc4ccccc4)CC3)cs2)cc1` | no | no | no |
| 55 | `COc1ccc([C@H]2CN(c3ncnc4sc(C)c(C)c34)C[C@@H]2N)cc1` | yes | no | no |
| 56 | `Cc1cccn2c(=O)c3cc(C#N)c(=N)n(CCOCCO)c3nc12` | no | no | no |
| 57 | `CN[C@@H]1C[C@H]2O[C@@](C)([C@H]1OC)n1c3ccccc3c3c4c(c5c6ccccc6n2c5c31)C(=O)N[C@H]4O` | no | no | no |
| 58 | `CCOCCCNc1nc(-c2ccc(Cl)cc2)nc2ccccc12` | no | no | no |
| 59 | `c1ccc(CCc2cn(CCN3CCNCC3)nn2)cc1` | no | no | no |
| 60 | `CCSCCC(NC1=CC(=O)CC(C)(C)C1)C(=O)O` (stereo not shown) | no | no | no |
| 61 | `O=C(c1cn(-c2ccccc2)nn1)N1Cc2cnn(CCO)c2C1` | no | no | no |
| 62 | `O=C(NCCNc1ccc(Cl)cc1[N+](=O)[O-])C(c1ccccc1)c1ccccc1` | no | no | no |
| 63 | `Cc1ccccc1-c1noc(-c2cccnc2NCc2ccccc2)n1` | - | no | no |
| 64 | `COCC(=O)N1C[C@H]2CNC[C@@]2(C(=O)N(C)CCC(C)C)C1` | no | no | no |
| 65 | `O=C(C1CC(=O)N(c2cccc(C(F)(F)F)c2)C1)N1CCNCC1` (stereo not shown) | no | no | no |
| 66 | `CC1CC(Nc2ccccc2)c2ccccc2N1C(=O)c1ccccc1` (stereo not shown) | no | no | no |
| 67 | `Cc1oc(-c2cccc(F)c2)nc1CN1C(=O)OCC1CO` (stereo not shown) | no | no | no |
| 68 | `N#CC1=C(N)Oc2n[nH]c(-c3ccccc3)c2C1c1ccccc1Cl` (stereo not shown) | no | no | no |
| 69 | `CC12CCC(C(=O)N(CNc3ccccc3)C1=O)C2(C)C` (stereo not shown) | no | no | no |
| 70 | `Nc1nc2nc(-c3ccc(OCc4ccccc4)cc3)cc(C(F)(F)F)n2n1` | no | no | no |
| 71 | `CCNc1nc(C)cc(N2CCN(S(=O)(=O)c3ccc(CC)cc3)CC2)n1` | - | no | no |
| 72 | `Cc1nc(S(=O)(=O)c2ccc(F)cc2)c(NCc2ccccc2)o1` | no | no | no |
| 73 | `CSc1cccc(CNc2ccc(Cl)nn2)c1` | no | no | no |
| 74 | `CC(=Cc1csc(C)n1)[C@@H]1C[C@H]2O[C@]2(C)CCC[C@H](C)[C@@H](O)[C@@H](C)C(=O)C(C)(C)[C@@H](O)CC(=O)O1` | no | no | no |
| 75 | `O=C(NC[C@@H]1CCNC[C@H]1O)c1ccc2c(c1)CCO2` | no | no | no |
| 76 | `Cc1nc2nncn2c(Nc2ccc(F)cc2)c1C` | - | no | no |
| 77 | `Cn1c(-c2c(-c3ccccc3)ncn2CCOCCO)cc2ccccc21` | no | no | no |

For reference, 4 entries once more:

- CC(C)OCC(O)Cn1c2ccccc2c2ccccc21 (stereo not shown) : SAM-II: no; PreQ1: no; TPP: no
- CC(C)C(=O)Nc1cc(NC(=O)N[C@H](CO)Cc2ccccc2)ccc1F : SAM-II: no; PreQ1: no; TPP: no
- Nc1nc(N2CCC(c3nccn3CC3CC3)CC2)c2nc[nH]c2n1 : SAM-II: no; PreQ1: no; TPP: no
- Nc1nc(SCCc2ccccc2)ns1 : SAM-II: no; PreQ1: no; TPP: no

From ROBIN, a set of small-molecule microarray screens (doi:10.1002/anie.202211358).